Data published in the supplement of paper PMC10331698.
± gives the standard deviation of the averaged measurements. Most values lie at the level of the controls, where differences are scatter.

Legend:
Test in all cases: level (log10 ratio to DMSO vehicle control); higher = higher biomarker level / cell amount than vehicle control
[1] = compound: OCC(F)(F)C(F)(F)C(F)(F)C(F)(F)C(F)(F)C(F)F [1H,1H,7H-Dodecafluoro-1-heptanol]; conditions: 2200 nM; in DMSO
Description: (§1)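 BioMAP Diversity Plus panel of 12 human primary cell co-culture systems (3C, 4H, LPS, SAg, BT, BF4T, BE3C, CASM3C, HDF3CGF, KF3CT, MyoF, Mphg). Compounds were added 1 h before stimulation and left for 24 h (MyoF 48 h; BT 72 h for soluble read-outs or 6 d for IgG). Biomarkers were read by ELISA, cytotoxicity by SRB, PBMC viability and proliferation by Alamar Blue. Each well value was divided by the mean of 8 DMSO control wells on the same plate and log10 transformed; duplicate blinded samples were tested at 4 concentrations.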

[2] = compound: O=S(=O)(OCC(F)(F)F)C(F)(F)C(F)(F)C(F)(F)C(F)(F)F [2,2,2-Trifluoroethyl perfluorobutanesulfonate]; conditions: 2200 nM; in DMSO
Description: as §1

[3] = compound: O=P(O)(O)CCC(F)(F)C(F)(F)C(F)(F)C(F)(F)C(F)(F)C(F)(F)F [2-(Perfluorohexyl)ethylphosphonic acid]; conditions: 2200 nM; in DMSO
Description: as §1

[4] = compound: NS(=O)(=O)C(F)(F)C(F)(F)C(F)(F)C(F)(F)C(F)(F)C(F)(F)C(F)(F)C(F)(F)F [Perfluorooctanesulfonamide]; conditions: in DMSO
Description: as §1

[5] = compound: C=C(C)C(=O)OCC(F)(F)C(F)(F)C(F)(F)C(F)(F)C(F)(F)C(F)(F)C(F)(F)F; conditions: in DMSO
Description: as §1

[6] = compound: OCCCCC(F)(F)C(F)(F)C(F)(F)C(F)(F)F [4:4 Fluorotelomer alcohol]; conditions: 2200 nM; in DMSO
Description: as §1

[7] = compound: COC(=O)C(F)(F)C(F)(F)OC(F)(C(F)(F)F)C(F)(F)OC(F)=C(F)F [Methyl perfluoro(3-(1-ethenyloxypropan-2-yloxy)propanoate)]; conditions: in DMSO
Description: as §1

[8] = compound: O=S(=O)(F)C(F)(F)C(F)(F)C(F)(F)C(F)(F)C(F)(F)C(F)(F)C(F)(F)C(F)(F)F [Perfluorooctanesulfonyl fluoride]; conditions: 2200 nM; in DMSO
Description: as §1

[9] = compound: FC(F)(F)C(F)(F)C(F)(F)CC1CO1 [1H,1H-Heptafluorobutyl epoxide]; conditions: 2200 nM; in DMSO
Description: as §1

[10] = compound: C=CC(F)(F)C(F)(F)C(F)(F)C(F)(F)C(F)(F)C(F)(F)C(F)(F)C(F)(F)C=C [1,8-Divinylperfluorooctane]; conditions: in DMSO
Description: as §1

[11] = compound: O=S(=O)(O)C(F)(F)C(F)(F)C(F)(F)C(F)(F)C(F)(F)C(F)(F)C(F)(F)C(F)(F)F [Perfluorooctanesulfonic acid]; conditions: 2200 nM; in DMSO
Description: as §1

[12] = compound: C=CC(=O)OCC(F)(F)C(F)(F)C(F)(F)C(F)(F)C(F)(F)C(F)(F)C(F)(F)F [1H,1H-Perfluorooctyl acrylate]; conditions: 2200 nM; in DMSO
Description: as §1

[13] = compound: CO[Si](C)(CCC(F)(F)C(F)(F)C(F)(F)C(F)(F)C(F)(F)C(F)(F)F)OC [Dimethoxymethyl((perfluorohexyl)ethyl)silane]; conditions: in DMSO
Description: as §1

[14] = compound: NC(=O)C(F)(F)C(F)(F)C(F)(F)C(F)F; conditions: in DMSO
Description: as §1

[15] = compound: FC(F)(F)C(F)(F)C(F)(F)CI [Heptafluorobutyl iodide]; conditions: 2200 nM; in DMSO
Description: as §1

[16] = compound: NC(=O)C(F)(F)C(F)(F)F [Pentafluoropropionamide]; conditions: 2200 nM; in DMSO
Description: as §1

[17] = compound: O=C(O)C(F)(F)C(F)(F)C(F)F [4H-Perfluorobutanoic acid]; conditions: in DMSO
Description: as §1

[18] = compound: O=S(=O)(O)C(F)(F)C(F)(F)C(F)(F)C(F)(F)C(F)(F)C(F)(F)C(F)(F)C(F)(F)F [Potassium perfluorooctanesulfonate]; conditions: 2200 nM; in DMSO
Description: as §1

Test System	level (log10) [1]	level (log10) [2]	level (log10) [3]	level (log10) ([4]; 2200 nM)	level (log10) ([4]; 6700 nM)	level (log10) ([4]; 20000 nM)	level (log10) ([5]; 740 nM)	level (log10) ([5]; 2200 nM)	level (log10) [6]	level (log10) ([7]; 740 nM)	level (log10) ([7]; 2200 nM)	level (log10) [8]	level (log10) [9]	level (log10) ([10]; 740 nM)	level (log10) ([10]; 2200 nM)	level (log10) [11]	level (log10) [12]	level (log10) ([13]; 740 nM)	level (log10) ([13]; 2200 nM)	level (log10) ([14]; 2200 nM)	level (log10) ([14]; 6700 nM)	level (log10) ([14]; 20000 nM)	level (log10) ([14]; 60000 nM)	level (log10) [15]	level (log10) [16]	level (log10) ([17]; 2200 nM)	level (log10) ([17]; 6700 nM)	level (log10) ([17]; 20000 nM)	level (log10) ([17]; 60000 nM)	level (log10) [18]
SAg:SRB	-0.0135 ± 0.0064	0.0085 ± 0.011	-0.0055 ± 0.00071	0.019 ± 0.0099	0.0065 ± 0.005	-0.0515 ± 0.0064	0.023 ± 0.0071	0.015 ± 0.014	-0.003 ± 0.018	-0.002 ± 0.0071	0.005	0 ± 0.0014	0.0025 ± 0.021	0.008 ± 0.011	0.0145 ± 0.0064	-0.012 ± 0.014	0.0045 ± 0.011	0.008 ± 0.0042	0.011 ± 0.0042	-0.0175 ± 0.0078	-0.0225 ± 0.0035	-0.02 ± 0.0028	-0.015 ± 0.021	0.013 ± 0.0042	0.011 ± 0.0057	-0.01 ± 0.0014	-0.0055 ± 0.0078	-0.0145 ± 0.0021	0 ± 0.0028	-0.004 ± 0.0099
lMphg:CCL2/MCP-1	0.016 ± 0.057	-0.0175 ± 0.021	0.0175 ± 0.029	0.001 ± 0.068	-0.032 ± 0.016	-0.0485 ± 0.046	0.0185 ± 0.052	-0.0135 ± 0.03	-0.005 ± 0.048	-0.013	-0.006 ± 0.024	-0.0165 ± 0.016	0.004 ± 0.018	0.0055 ± 0.035	-0.004 ± 0.011	0.0055 ± 0.023	0.002 ± 0.034	-0.003 ± 0.024	-0.019 ± 0.0014	0.0205 ± 0.054	0.004	-0.0065 ± 0.012	0.0255 ± 0.018	0.0025 ± 0.015	0.015 ± 0.027	-0.01 ± 0.044	-0.024 ± 0.027	-0.0125 ± 0.0035	0.0005 ± 0.021	0.0135 ± 0.016
lMphg:CCL3/MIP-1alpha	0.051 ± 0.073	-0.0275 ± 0.047	-0.005 ± 0.027	0.001 ± 0.033	-0.003 ± 0.016	0.023 ± 0.0099	0.024 ± 0.047	-0.014 ± 0.02	0.0165 ± 0.023	0.015 ± 0.03	0.0155 ± 0.0064	0.018 ± 0.041	-0.014 ± 0.031	0.0075 ± 0.036	-0.0295 ± 0.0092	-0.003 ± 0.0085	0.01 ± 0.025	0.0195 ± 0.0092	-0.0165 ± 0.0021	0 ± 0.0057	-0.039 ± 0.0099	-0.0295 ± 0.018	-0.006 ± 0.0028	0.032 ± 0.034	0.0225 ± 0.025	0.025 ± 0.034	-0.0075 ± 0.037	0.004 ± 0.016	0.0235 ± 0.011	0.022 ± 0.0014
lMphg:CD40	-0.034 ± 0.03	0.004	-0.0115 ± 0.005	-0.017 ± 0.014	-0.0365 ± 0.016	-0.0925 ± 0.0092	-0.017 ± 0.011	-0.015 ± 0.0014	-0.04 ± 0.0042	0.027 ± 0.02	0.0045 ± 0.028	0.001 ± 0.0042	0.008 ± 0.031	-0.012 ± 0.044	-0.0205 ± 0.029	0.004 ± 0.016	0.027 ± 0.044	-0.01 ± 0.011	0 ± 0.0099	-0.012 ± 0.016	-0.026 ± 0.027	-0.011 ± 0.0071	-0.017 ± 0.0042	-0.019 ± 0.017	-0.0175 ± 0.0035	0.0145 ± 0.03	0.0065 ± 0.028	-0.0035 ± 0.039	0.007 ± 0.024	-0.009 ± 0.0014
lMphg:CD62E/E-Selectin	-0.0245 ± 0.0092	0.0175 ± 0.052	0.003 ± 0.041	-0.067 ± 0.076	-0.118 ± 0.041	-0.125 ± 0.0057	-0.0065 ± 0.0078	-0.013 ± 0.018	-0.0065 ± 0.057	0.027 ± 0.0014	0.0195 ± 0.0078	-0.0055 ± 0.012	0.004 ± 0.031	-0.006 ± 0.028	-0.013 ± 0.021	0.0155 ± 0.074	-0.0065 ± 0.025	-0.0105 ± 0.0064	-0.018 ± 0.013	-0.0165 ± 0.043	-0.011 ± 0.038	-0.021 ± 0.076	-0.037 ± 0.078	0.0025 ± 0.047	-0.0075 ± 0.025	0.0115 ± 0.019	-0.012 ± 0.0028	0.0025 ± 0.0092	0.0145 ± 0.0064	-0.025 ± 0.028
lMphg:CD69	0.0165 ± 0.086	-0.026 ± 0.018	-0.008 ± 0.075	-0.022 ± 0.037	-0.0435 ± 0.052	-0.11 ± 0.037	0.0065 ± 0.023	-0.0185 ± 0.018	-0.0005 ± 0.036	0.025 ± 0.0057	-0.042 ± 0.042	-0.0265 ± 0.036	-0.004 ± 0.045	0.0255 ± 0.016	-0.011 ± 0.028	0.009 ± 0.033	-0.009 ± 0.021	-0.0335 ± 0.049	-0.012 ± 0.047	0.0095 ± 0.042	0.0265 ± 0.018	-0.015 ± 0.0071	-0.0115 ± 0.0078	-0.039 ± 0.014	0.018 ± 0.027	0.02 ± 0.03	0.0185 ± 0.032	-0.0175 ± 0.0021	0.0095 ± 0.019	0.002 ± 0.079
